Measured values reported in patent US4011182A, “Cyclic undecapeptide analogs of somatostatin and intermediates” (American Home Products Corporation, priority 1975, dated 1977).
Not every detail of the peptide structures is certain; ends, links or a residue may be inferred.

System: insulin
Test: In vivo assay of simultaneous release of growth hormone, insulin and glucagon (pentobarbital, arginine): insulin
Conditions: male rats, 0.2 mg/kg subcutaneously, arginine stimulated
Method: Another test was conducted with the compound of Example 5 to determine its effect upon insulin and glucagon levels. The in vivo assay determining simultaneous release of growth hormone, insulin and glucagon was carried out by injecting three groups of male rats weighing about 200 to 250 g. (9 animals per group) with pentobarbital […], a subcutaneous injection of SRIF at a dose of 0.2 mg/kg to another group of rats and a subcutaneous injection of saline solution to the third group of rats. Ten minutes after such injection the rats receive 150 mg. arginine in 0.5 ml. saline directly in the heart. Five minutes later the rats are decapitated, the blood collected and various radioimmunoassays are run.

For `C[C@H](N)C(=O)NCC(=O)N[C@H]1CSSC[C@@H](C(=O)O)NC(=O)[C@H](CO)NC(=O)[C@H]([C@@H](C)O)NC(=O)[C@H](Cc2ccccc2)NC(=O)[C@H]([C@@H](C)O)NC(=O)[C@H](CCCCN)NC(=O)[C@H](Cc2c[nH]c3ccccc23)NC(=O)[C@H](Cc2ccccc2)NC(=O)[C@H](Cc2ccccc2)NC(=O)[C@H](CC(N)=O)NC(=O)[C@H](CCCCN)NC1=O` [somatostatin, Somatostatin], the insulin levels was “lowered”.
